These are literature values, as cited in article PMC5728534 (PLoS ONE, 2017).

The subject of the data set is OCT2 Ser270 allele. The note with it: OCT2 Ser270 vs reference; cited from earlier work.

Regarding `CC(C)[N+]1(C)[C@@H]2CC[C@H]1C[C@@H](OC(=O)C(CO)c1ccccc1)C2` (stereo partly shown) [ipratropium], the “increase of maximal uptake rates with the Ser270 allele” value is given as 21%.
